Our source for the binding values is publication PMC12375108.

Assay [1] addresses T1, AMPylated sodA (UniProt P00448).
T1 sequence (chain, AMPylated on tyrosine, residue not printed): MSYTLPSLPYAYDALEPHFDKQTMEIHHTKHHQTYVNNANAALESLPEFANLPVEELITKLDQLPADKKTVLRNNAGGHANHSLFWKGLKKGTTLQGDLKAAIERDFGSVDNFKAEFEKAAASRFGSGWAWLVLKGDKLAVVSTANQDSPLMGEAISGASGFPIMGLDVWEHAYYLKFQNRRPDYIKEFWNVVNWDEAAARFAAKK
The assay is described as follows: far-Western, overlay or dot blot; dot blot: 400 ng to 25 ng of AMPylated or non-AMPylated protein spotted on nitrocellulose, probed with GST or GST-hinT at 0.125 μg/mL in TBST for 1 h, detected with α-GST; both purified.

Another assay has as its target T2, non-AMPylated sodA (UniProt P00448).
T2 sequence: T1 sequence (chain, AMPylated on tyrosine, residue not printed)
The description is as above.

Assay [2] has as its target T1, AMPylated sodA. The assay is described as follows: far-Western, overlay or dot blot; auto-ADP-ribosylated PARP1 (no, 3 μM or 250 μM NAD+) and sodA-AMP on membrane probed with Tm hinT H100N (Supplementary Fig. 12a); whether dot blot or far western is not given; both purified.
Assay [3] concerns the target T1, AMPylated sodA. The assay is described as follows: far-Western, overlay or dot blot; far western: 0.5 μg/lane of AMPylated and non-AMPylated SodA, Rab1, Rac1 and BiP resolved by SDS-PAGE, membrane probed with 0.06 μg/ml GST-hinT homologs for 1 h at room temperature, detected with α-GST; both purified.

These are yes or no findings as the source states them, for the method shown. For some of these results: A result given as binding can be weak or reduced; the word gives no strength.

As for “GST-tagged T. marianensis hinT H100N (Thermaerobacter marianensis) (enzyme)”, the binding entry with AMPylated sodA [1] is “binds”; with non-AMPylated sodA it was “no binding (tested: 0.125 μg/mL; up to 400 ng spotted)”; in the assay with AMPylated sodA [2], “binds”; with AMPylated sodA [3], “binds”.
